In patent US20250049738A1, “METHOD OF TREATMENT AND SELECTION OF PATIENTS BENEFITING FROM AGOMELATINE BASED ON EEG MEASUREMENTS” (Alto Neuroscience, Inc., priority 2023, published 2025):
Further values from the same series stand in other lists.

Tested on: patients with major depressive disorder
Assay: Open-label trials of adjunctive agomelatine 25 mg at bedtime in MDD; baseline EEG models predicting change in MADRS
Format: in vivo, human

COc1ccc2cccc(CCNC(C)=O)c2c1 [agomelatine, N-[2-(7-methoxynaphthalen-1-yl)ethyl]acetamide]
d (Cohen's d, prediction of agomelatine outcome) (REC, Approximate Entropy, lower gamma, Week 6): 0.54 | d (Cohen's d, prediction of agomelatine outcome) (REC, Approximate Entropy, lower gamma, Week 8): 0.69 | d (Cohen's d, prediction of agomelatine outcome) (REC, Detrended Fluctuation Analysis, lower beta, Week 6): 0.35 | d (Cohen's d, prediction of agomelatine outcome) (REC, Detrended Fluctuation Analysis, lower beta, Week 8): 0.31 | d (Cohen's d, prediction of agomelatine outcome) (REC, Detrended Fluctuation Analysis, upper beta, Week 6): 0.27 | d (Cohen's d, prediction of agomelatine outcome) (REC, Detrended Fluctuation Analysis, upper beta, Week 8): 0.29 | d (Cohen's d, prediction of agomelatine outcome) (REC, Higuchi Fractal Dimension, lower beta, Week 6): 0.17 | d (Cohen's d, prediction of agomelatine outcome) (REC, Higuchi Fractal Dimension, lower beta, Week 8): 0.09 | d (Cohen's d, prediction of agomelatine outcome) (REC, Higuchi Fractal Dimension, lower gamma, Week 6): 0.50 | d (Cohen's d, prediction of agomelatine outcome) (REC, Higuchi Fractal Dimension, lower gamma, Week 8): 0.47 | d (Cohen's d, prediction of agomelatine outcome) (REC, Higuchi Fractal Dimension, upper beta, Week 6): 0.08 | d (Cohen's d, prediction of agomelatine outcome) (REC, Higuchi Fractal Dimension, upper beta, Week 8): 0.20 | d (Cohen's d, prediction of agomelatine outcome) (REC, Higuchi Fractal Dimension, upper gamma, Week 6): 0.22 | d (Cohen's d, prediction of agomelatine outcome) (REC, Higuchi Fractal Dimension, upper gamma, Week 8): 0.25 | d (Cohen's d, prediction of agomelatine outcome) (REC, Katz Fractal Dimension, lower beta, Week 6): 0.29 | d (Cohen's d, prediction of agomelatine outcome) (REC, Katz Fractal Dimension, lower beta, Week 8): 0.24 | d (Cohen's d, prediction of agomelatine outcome) (REC, Katz Fractal Dimension, lower gamma, Week 6): 0.20 | d (Cohen's d, prediction of agomelatine outcome) (REC, Katz Fractal Dimension, lower gamma, Week 8): 0.19 | d (Cohen's d, prediction of agomelatine outcome) (REC, Katz Fractal Dimension, upper beta, Week 6): 0.39 | d (Cohen's d, prediction of agomelatine outcome) (REC, Katz Fractal Dimension, upper beta, Week 8): 0.36 | d (Cohen's d, prediction of agomelatine outcome) (REC, Katz Fractal Dimension, upper gamma, Week 6): 0.32 | d (Cohen's d, prediction of agomelatine outcome) (REC, Katz Fractal Dimension, upper gamma, Week 8): 0.43 | d (Cohen's d, prediction of agomelatine outcome) (REC, Largest Lyapunov Exponent, upper alpha, Week 6): 0.22 | d (Cohen's d, prediction of agomelatine outcome) (REC, Largest Lyapunov Exponent, upper alpha, Week 8): 0.26 | d (Cohen's d, prediction of agomelatine outcome) (REC, Largest Lyapunov Exponent, upper gamma, Week 6): 0.46 | d (Cohen's d, prediction of agomelatine outcome) (REC, Largest Lyapunov Exponent, upper gamma, Week 8): 0.62 | d (Cohen's d, prediction of agomelatine outcome) (REC, Lempel-Ziv Complexity, lower gamma, Week 6): 0.26 | d (Cohen's d, prediction of agomelatine outcome) (REC, Lempel-Ziv Complexity, lower gamma, Week 8): 0.37 | d (Cohen's d, prediction of agomelatine outcome) (REC, Lempel-Ziv Complexity, upper alpha, Week 6): 0.07 | d (Cohen's d, prediction of agomelatine outcome) (REC, Lempel-Ziv Complexity, upper alpha, Week 8): 0.02 | d (Cohen's d, prediction of agomelatine outcome) (REC, Modified Multiscale Entropy, lower alpha, Week 6): 0.24 | d (Cohen's d, prediction of agomelatine outcome) (REC, Modified Multiscale Entropy, lower alpha, Week 8): 0.30 | d (Cohen's d, prediction of agomelatine outcome) (REC, Modified Multiscale Entropy, lower gamma, Week 6): 0.37 | d (Cohen's d, prediction of agomelatine outcome) (REC, Modified Multiscale Entropy, lower gamma, Week 8): 0.54 | d (Cohen's d, prediction of agomelatine outcome) (REC, Modified Multiscale Entropy, upper alpha, Week 6): 0.51 | d (Cohen's d, prediction of agomelatine outcome) (REC, Modified Multiscale Entropy, upper alpha, Week 8): 0.62 | d (Cohen's d, prediction of agomelatine outcome) (REC, Multiscale Entropy, lower gamma, Week 1): 0.18 | d (Cohen's d, prediction of agomelatine outcome) (REC, Multiscale Entropy, lower gamma, Week 2): 0.24 | d (Cohen's d, prediction of agomelatine outcome) (REC, Multiscale Entropy, lower gamma, Week 4): 0.39 | d (Cohen's d, prediction of agomelatine outcome) (REC, Multiscale Entropy, lower gamma, Week 6): 0.49 | d (Cohen's d, prediction of agomelatine outcome) (REC, Multiscale Entropy, lower gamma, Week 8): 0.57 | d (Cohen's d, prediction of agomelatine outcome) (REC, Multiscale Entropy, upper alpha, Week 2): 0.08 | d (Cohen's d, prediction of agomelatine outcome) (REC, Multiscale Entropy, upper alpha, Week 4): 0.15 | d (Cohen's d, prediction of agomelatine outcome) (REC, Multiscale Entropy, upper alpha, Week 6): 0.20 | d (Cohen's d, prediction of agomelatine outcome) (REC, Multiscale Entropy, upper alpha, Week 8): 0.24 | d (Cohen's d, prediction of agomelatine outcome) (REC, Permutation Entropy, lower gamma, Week 1): 0.38 | d (Cohen's d, prediction of agomelatine outcome) (REC, Permutation Entropy, lower gamma, Week 2): 0.35 | d (Cohen's d, prediction of agomelatine outcome) (REC, Permutation Entropy, lower gamma, Week 4): 0.33 | d (Cohen's d, prediction of agomelatine outcome) (REC, Permutation Entropy, lower gamma, Week 6): 0.27 | d (Cohen's d, prediction of agomelatine outcome) (REC, Permutation Entropy, lower gamma, Week 8): 0.24 | d (Cohen's d, prediction of agomelatine outcome) (REC, Tsallis Entropy, upper alpha, Week 1): 0.03 | d (Cohen's d, prediction of agomelatine outcome) (REC, Tsallis Entropy, upper alpha, Week 2): 0.04 | d (Cohen's d, prediction of agomelatine outcome) (REC, Tsallis Entropy, upper alpha, Week 4): 0.06 | d (Cohen's d, prediction of agomelatine outcome) (REC, Tsallis Entropy, upper alpha, Week 6): 0.08 | d (Cohen's d, prediction of agomelatine outcome) (REC, Tsallis Entropy, upper alpha, Week 8): 0.10 | d (Cohen's d, prediction of agomelatine outcome) (REO, Approximate Entropy, lower gamma, Week 6): 0.22 | d (Cohen's d, prediction of agomelatine outcome) (REO, Approximate Entropy, lower gamma, Week 8): 0.35 | d (Cohen's d, prediction of agomelatine outcome) (REO, Detrended Fluctuation Analysis, delta, Week 1): 0.07 | d (Cohen's d, prediction of agomelatine outcome) (REO, Detrended Fluctuation Analysis, delta, Week 2): 0.10 | d (Cohen's d, prediction of agomelatine outcome) (REO, Detrended Fluctuation Analysis, delta, Week 4): 0.18 | d (Cohen's d, prediction of agomelatine outcome) (REO, Detrended Fluctuation Analysis, delta, Week 6): 0.26 | d (Cohen's d, prediction of agomelatine outcome) (REO, Detrended Fluctuation Analysis, delta, Week 8): 0.32 | d (Cohen's d, prediction of agomelatine outcome) (REO, Detrended Fluctuation Analysis, lower beta, Week 1): 0.03 | d (Cohen's d, prediction of agomelatine outcome) (REO, Detrended Fluctuation Analysis, lower beta, Week 2): 0.06 | d (Cohen's d, prediction of agomelatine outcome) (REO, Detrended Fluctuation Analysis, lower beta, Week 4): 0.12 | d (Cohen's d, prediction of agomelatine outcome) (REO, Detrended Fluctuation Analysis, lower beta, Week 6): 0.18 | d (Cohen's d, prediction of agomelatine outcome) (REO, Detrended Fluctuation Analysis, lower beta, Week 8): 0.23 | d (Cohen's d, prediction of agomelatine outcome) (REO, Detrended Fluctuation Analysis, upper gamma, Week 6): 0.32 | d (Cohen's d, prediction of agomelatine outcome) (REO, Detrended Fluctuation Analysis, upper gamma, Week 8): 0.31 | d (Cohen's d, prediction of agomelatine outcome) (REO, Higuchi Fractal Dimension, delta, Week 6): 0.26 | d (Cohen's d, prediction of agomelatine outcome) (REO, Higuchi Fractal Dimension, delta, Week 8): 0.41 | d (Cohen's d, prediction of agomelatine outcome) (REO, Higuchi Fractal Dimension, lower beta, Week 6): 0.06 | d (Cohen's d, prediction of agomelatine outcome) (REO, Higuchi Fractal Dimension, lower beta, Week 8): 0.07 | d (Cohen's d, prediction of agomelatine outcome) (REO, Higuchi Fractal Dimension, upper gamma, Week 6): 0.16 | d (Cohen's d, prediction of agomelatine outcome) (REO, Higuchi Fractal Dimension, upper gamma, Week 8): 0.20 | d (Cohen's d, prediction of agomelatine outcome) (REO, Katz Fractal Dimension, delta, Week 6): 0.18 | d (Cohen's d, prediction of agomelatine outcome) (REO, Katz Fractal Dimension, delta, Week 8): 0.23 | d (Cohen's d, prediction of agomelatine outcome) (REO, Katz Fractal Dimension, lower beta, Week 6): −0.07 | d (Cohen's d, prediction of agomelatine outcome) (REO, Katz Fractal Dimension, lower beta, Week 8): −0.18 | d (Cohen's d, prediction of agomelatine outcome) (REO, Katz Fractal Dimension, upper beta, Week 6): 0.32 | d (Cohen's d, prediction of agomelatine outcome) (REO, Katz Fractal Dimension, upper beta, Week 8): 0.35 | d (Cohen's d, prediction of agomelatine outcome) (REO, Largest Lyapunov Exponent, upper alpha, Week 6): 0.26 | d (Cohen's d, prediction of agomelatine outcome) (REO, Largest Lyapunov Exponent, upper alpha, Week 8): 0.34 | d (Cohen's d, prediction of agomelatine outcome) (REO, Largest Lyapunov Exponent, upper gamma, Week 6): 0.26 | d (Cohen's d, prediction of agomelatine outcome) (REO, Largest Lyapunov Exponent, upper gamma, Week 8): 0.43 | d (Cohen's d, prediction of agomelatine outcome) (REO, Lempel-Ziv Complexity, lower gamma, Week 6): 0.17 | d (Cohen's d, prediction of agomelatine outcome) (REO, Lempel-Ziv Complexity, lower gamma, Week 8): 0.31 | d (Cohen's d, prediction of agomelatine outcome) (REO, Lempel-Ziv Complexity, theta, Week 6): 0.19 | d (Cohen's d, prediction of agomelatine outcome) (REO, Lempel-Ziv Complexity, theta, Week 8): 0.22 | d (Cohen's d, prediction of agomelatine outcome) (REO, Lempel-Ziv Complexity, upper beta, Week 6): 0.35 | d (Cohen's d, prediction of agomelatine outcome) (REO, Lempel-Ziv Complexity, upper beta, Week 8): 0.40 | d (Cohen's d, prediction of agomelatine outcome) (REO, Modified Multiscale Entropy, upper beta, Week 6): 0.43 | d (Cohen's d, prediction of agomelatine outcome) (REO, Modified Multiscale Entropy, upper beta, Week 8): 0.61 | d (Cohen's d, prediction of agomelatine outcome) (REO, Multiscale Entropy, lower gamma, Week 6): 0.30 | d (Cohen's d, prediction of agomelatine outcome) (REO, Multiscale Entropy, lower gamma, Week 8): 0.52 | d (Cohen's d, prediction of agomelatine outcome) (REO, Multiscale Entropy, upper beta, Week 1): −0.09 | d (Cohen's d, prediction of agomelatine outcome) (REO, Multiscale Entropy, upper beta, Week 2): 0.02 | d (Cohen's d, prediction of agomelatine outcome) (REO, Multiscale Entropy, upper beta, Week 4): 0.20 | d (Cohen's d, prediction of agomelatine outcome) (REO, Multiscale Entropy, upper beta, Week 6): 0.36 | d (Cohen's d, prediction of agomelatine outcome) (REO, Multiscale Entropy, upper beta, Week 8): 0.54 | d (Cohen's d, prediction of agomelatine outcome) (REO, Tsallis Entropy, lower beta, Week 1): −0.18 | d (Cohen's d, prediction of agomelatine outcome) (REO, Tsallis Entropy, lower beta, Week 2): −0.09 | d (Cohen's d, prediction of agomelatine outcome) (REO, Tsallis Entropy, lower beta, Week 4): 0.02 | d (Cohen's d, prediction of agomelatine outcome) (REO, Tsallis Entropy, lower beta, Week 6): 0.13 | d (Cohen's d, prediction of agomelatine outcome) (REO, Tsallis Entropy, lower beta, Week 8): 0.23 | d (Cohen's d, prediction of agomelatine outcome) (REO, Tsallis Entropy, lower gamma, Week 1): 0.21 | d (Cohen's d, prediction of agomelatine outcome) (REO, Tsallis Entropy, lower gamma, Week 2): 0.18 | d (Cohen's d, prediction of agomelatine outcome) (REO, Tsallis Entropy, lower gamma, Week 4): 0.16 | d (Cohen's d, prediction of agomelatine outcome) (REO, Tsallis Entropy, lower gamma, Week 6): 0.15 | d (Cohen's d, prediction of agomelatine outcome) (REO, Tsallis Entropy, lower gamma, Week 8): 0.13
